Source: paper PMC4525203
Results are given in words; binding and its absence hold for the method and conditions named. In cells and extracts the contact can be indirect. A yes stands for co-enrichment or nearness to the bait. Other partners may have been found. For part of these data: Tags and fused reporters may be left off the sequences shown.

Sequences of proteins named here, by UniProt entry; tags and fusion partners are left off. A change or cut given only in a name is not applied to a line headed by its entry.
UniProt Q62296: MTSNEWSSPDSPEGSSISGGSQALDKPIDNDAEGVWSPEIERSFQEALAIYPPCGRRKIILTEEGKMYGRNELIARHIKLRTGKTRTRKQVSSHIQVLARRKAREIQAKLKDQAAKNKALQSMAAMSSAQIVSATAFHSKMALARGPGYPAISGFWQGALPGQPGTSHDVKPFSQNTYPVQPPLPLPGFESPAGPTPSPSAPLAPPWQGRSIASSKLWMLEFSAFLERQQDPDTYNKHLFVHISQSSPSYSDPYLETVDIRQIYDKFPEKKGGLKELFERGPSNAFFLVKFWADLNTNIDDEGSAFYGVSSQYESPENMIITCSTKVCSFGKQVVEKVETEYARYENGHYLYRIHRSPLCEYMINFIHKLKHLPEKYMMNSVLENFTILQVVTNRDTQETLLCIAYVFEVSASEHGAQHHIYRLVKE
UniProt Q9Z148: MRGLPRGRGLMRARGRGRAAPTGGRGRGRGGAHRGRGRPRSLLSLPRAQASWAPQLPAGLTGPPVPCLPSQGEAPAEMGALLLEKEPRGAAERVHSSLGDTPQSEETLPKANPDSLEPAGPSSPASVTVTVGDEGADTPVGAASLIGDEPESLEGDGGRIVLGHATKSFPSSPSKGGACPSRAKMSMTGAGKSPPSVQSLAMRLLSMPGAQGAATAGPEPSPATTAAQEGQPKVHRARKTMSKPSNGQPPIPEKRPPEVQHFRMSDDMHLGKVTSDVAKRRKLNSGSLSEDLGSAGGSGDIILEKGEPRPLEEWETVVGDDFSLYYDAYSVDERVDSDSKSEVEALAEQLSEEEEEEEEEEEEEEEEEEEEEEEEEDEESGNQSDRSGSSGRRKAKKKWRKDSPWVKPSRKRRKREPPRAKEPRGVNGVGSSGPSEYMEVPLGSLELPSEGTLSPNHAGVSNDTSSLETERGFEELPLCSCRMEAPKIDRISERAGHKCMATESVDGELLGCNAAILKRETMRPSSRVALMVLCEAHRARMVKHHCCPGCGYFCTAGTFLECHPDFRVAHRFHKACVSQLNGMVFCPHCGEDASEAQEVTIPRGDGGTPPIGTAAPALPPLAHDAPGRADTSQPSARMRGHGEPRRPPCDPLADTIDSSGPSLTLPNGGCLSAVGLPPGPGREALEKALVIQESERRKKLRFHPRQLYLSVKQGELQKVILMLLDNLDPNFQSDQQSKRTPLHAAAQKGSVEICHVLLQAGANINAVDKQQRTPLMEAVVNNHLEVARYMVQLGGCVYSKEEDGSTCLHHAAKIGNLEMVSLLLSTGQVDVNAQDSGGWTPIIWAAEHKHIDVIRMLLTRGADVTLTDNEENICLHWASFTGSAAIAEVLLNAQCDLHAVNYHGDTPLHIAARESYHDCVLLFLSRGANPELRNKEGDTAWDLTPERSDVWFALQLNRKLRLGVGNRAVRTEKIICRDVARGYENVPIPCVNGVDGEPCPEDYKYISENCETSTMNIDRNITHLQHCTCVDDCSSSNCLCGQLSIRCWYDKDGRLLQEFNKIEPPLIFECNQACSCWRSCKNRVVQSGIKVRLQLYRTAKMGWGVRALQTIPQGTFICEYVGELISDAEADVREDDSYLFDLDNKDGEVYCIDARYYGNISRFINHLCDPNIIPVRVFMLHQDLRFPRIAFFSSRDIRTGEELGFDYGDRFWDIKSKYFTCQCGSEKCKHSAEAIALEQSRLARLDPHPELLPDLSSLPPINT
UniProt Q9JI44: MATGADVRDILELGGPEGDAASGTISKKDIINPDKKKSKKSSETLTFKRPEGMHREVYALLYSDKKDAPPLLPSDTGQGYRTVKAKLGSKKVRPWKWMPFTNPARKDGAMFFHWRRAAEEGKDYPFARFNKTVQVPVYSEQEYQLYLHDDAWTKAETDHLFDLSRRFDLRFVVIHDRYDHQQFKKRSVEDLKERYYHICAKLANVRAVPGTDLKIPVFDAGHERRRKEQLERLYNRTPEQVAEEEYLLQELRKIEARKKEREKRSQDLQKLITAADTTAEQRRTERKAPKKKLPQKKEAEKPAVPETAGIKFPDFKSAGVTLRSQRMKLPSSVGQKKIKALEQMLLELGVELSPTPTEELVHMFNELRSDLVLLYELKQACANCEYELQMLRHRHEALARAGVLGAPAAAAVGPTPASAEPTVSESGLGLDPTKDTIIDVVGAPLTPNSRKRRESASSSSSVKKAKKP
UniProt Q9R210: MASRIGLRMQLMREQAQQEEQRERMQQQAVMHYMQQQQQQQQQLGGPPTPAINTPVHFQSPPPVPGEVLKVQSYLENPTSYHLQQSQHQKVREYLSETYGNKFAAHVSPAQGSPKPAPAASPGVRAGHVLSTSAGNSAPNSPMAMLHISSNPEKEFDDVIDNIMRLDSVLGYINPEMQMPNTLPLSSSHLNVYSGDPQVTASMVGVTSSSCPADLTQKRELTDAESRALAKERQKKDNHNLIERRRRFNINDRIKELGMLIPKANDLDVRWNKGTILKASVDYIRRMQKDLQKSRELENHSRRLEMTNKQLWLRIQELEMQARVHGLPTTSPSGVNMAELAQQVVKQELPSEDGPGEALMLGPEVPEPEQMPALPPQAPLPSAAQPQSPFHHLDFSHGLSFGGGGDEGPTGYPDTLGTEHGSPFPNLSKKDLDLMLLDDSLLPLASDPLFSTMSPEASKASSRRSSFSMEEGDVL
UniProt Q8K2A7: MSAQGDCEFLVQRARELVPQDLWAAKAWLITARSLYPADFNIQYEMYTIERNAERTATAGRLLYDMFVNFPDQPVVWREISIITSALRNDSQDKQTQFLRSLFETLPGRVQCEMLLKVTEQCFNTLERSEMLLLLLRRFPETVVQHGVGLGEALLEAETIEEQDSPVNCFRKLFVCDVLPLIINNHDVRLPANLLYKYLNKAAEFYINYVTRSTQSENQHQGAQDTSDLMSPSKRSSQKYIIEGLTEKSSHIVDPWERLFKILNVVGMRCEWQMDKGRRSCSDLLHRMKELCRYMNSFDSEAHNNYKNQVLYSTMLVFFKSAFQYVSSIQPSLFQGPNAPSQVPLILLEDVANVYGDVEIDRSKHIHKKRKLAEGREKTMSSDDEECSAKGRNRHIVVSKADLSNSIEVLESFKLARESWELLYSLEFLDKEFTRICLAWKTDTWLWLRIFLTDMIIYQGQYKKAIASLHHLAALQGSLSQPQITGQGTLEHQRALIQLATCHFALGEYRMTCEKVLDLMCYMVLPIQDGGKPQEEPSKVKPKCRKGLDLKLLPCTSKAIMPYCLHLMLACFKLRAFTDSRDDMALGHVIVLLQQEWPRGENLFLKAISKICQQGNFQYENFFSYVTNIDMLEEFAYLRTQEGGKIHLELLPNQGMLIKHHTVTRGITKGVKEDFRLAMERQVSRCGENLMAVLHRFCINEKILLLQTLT
UniProt Q8CHI8: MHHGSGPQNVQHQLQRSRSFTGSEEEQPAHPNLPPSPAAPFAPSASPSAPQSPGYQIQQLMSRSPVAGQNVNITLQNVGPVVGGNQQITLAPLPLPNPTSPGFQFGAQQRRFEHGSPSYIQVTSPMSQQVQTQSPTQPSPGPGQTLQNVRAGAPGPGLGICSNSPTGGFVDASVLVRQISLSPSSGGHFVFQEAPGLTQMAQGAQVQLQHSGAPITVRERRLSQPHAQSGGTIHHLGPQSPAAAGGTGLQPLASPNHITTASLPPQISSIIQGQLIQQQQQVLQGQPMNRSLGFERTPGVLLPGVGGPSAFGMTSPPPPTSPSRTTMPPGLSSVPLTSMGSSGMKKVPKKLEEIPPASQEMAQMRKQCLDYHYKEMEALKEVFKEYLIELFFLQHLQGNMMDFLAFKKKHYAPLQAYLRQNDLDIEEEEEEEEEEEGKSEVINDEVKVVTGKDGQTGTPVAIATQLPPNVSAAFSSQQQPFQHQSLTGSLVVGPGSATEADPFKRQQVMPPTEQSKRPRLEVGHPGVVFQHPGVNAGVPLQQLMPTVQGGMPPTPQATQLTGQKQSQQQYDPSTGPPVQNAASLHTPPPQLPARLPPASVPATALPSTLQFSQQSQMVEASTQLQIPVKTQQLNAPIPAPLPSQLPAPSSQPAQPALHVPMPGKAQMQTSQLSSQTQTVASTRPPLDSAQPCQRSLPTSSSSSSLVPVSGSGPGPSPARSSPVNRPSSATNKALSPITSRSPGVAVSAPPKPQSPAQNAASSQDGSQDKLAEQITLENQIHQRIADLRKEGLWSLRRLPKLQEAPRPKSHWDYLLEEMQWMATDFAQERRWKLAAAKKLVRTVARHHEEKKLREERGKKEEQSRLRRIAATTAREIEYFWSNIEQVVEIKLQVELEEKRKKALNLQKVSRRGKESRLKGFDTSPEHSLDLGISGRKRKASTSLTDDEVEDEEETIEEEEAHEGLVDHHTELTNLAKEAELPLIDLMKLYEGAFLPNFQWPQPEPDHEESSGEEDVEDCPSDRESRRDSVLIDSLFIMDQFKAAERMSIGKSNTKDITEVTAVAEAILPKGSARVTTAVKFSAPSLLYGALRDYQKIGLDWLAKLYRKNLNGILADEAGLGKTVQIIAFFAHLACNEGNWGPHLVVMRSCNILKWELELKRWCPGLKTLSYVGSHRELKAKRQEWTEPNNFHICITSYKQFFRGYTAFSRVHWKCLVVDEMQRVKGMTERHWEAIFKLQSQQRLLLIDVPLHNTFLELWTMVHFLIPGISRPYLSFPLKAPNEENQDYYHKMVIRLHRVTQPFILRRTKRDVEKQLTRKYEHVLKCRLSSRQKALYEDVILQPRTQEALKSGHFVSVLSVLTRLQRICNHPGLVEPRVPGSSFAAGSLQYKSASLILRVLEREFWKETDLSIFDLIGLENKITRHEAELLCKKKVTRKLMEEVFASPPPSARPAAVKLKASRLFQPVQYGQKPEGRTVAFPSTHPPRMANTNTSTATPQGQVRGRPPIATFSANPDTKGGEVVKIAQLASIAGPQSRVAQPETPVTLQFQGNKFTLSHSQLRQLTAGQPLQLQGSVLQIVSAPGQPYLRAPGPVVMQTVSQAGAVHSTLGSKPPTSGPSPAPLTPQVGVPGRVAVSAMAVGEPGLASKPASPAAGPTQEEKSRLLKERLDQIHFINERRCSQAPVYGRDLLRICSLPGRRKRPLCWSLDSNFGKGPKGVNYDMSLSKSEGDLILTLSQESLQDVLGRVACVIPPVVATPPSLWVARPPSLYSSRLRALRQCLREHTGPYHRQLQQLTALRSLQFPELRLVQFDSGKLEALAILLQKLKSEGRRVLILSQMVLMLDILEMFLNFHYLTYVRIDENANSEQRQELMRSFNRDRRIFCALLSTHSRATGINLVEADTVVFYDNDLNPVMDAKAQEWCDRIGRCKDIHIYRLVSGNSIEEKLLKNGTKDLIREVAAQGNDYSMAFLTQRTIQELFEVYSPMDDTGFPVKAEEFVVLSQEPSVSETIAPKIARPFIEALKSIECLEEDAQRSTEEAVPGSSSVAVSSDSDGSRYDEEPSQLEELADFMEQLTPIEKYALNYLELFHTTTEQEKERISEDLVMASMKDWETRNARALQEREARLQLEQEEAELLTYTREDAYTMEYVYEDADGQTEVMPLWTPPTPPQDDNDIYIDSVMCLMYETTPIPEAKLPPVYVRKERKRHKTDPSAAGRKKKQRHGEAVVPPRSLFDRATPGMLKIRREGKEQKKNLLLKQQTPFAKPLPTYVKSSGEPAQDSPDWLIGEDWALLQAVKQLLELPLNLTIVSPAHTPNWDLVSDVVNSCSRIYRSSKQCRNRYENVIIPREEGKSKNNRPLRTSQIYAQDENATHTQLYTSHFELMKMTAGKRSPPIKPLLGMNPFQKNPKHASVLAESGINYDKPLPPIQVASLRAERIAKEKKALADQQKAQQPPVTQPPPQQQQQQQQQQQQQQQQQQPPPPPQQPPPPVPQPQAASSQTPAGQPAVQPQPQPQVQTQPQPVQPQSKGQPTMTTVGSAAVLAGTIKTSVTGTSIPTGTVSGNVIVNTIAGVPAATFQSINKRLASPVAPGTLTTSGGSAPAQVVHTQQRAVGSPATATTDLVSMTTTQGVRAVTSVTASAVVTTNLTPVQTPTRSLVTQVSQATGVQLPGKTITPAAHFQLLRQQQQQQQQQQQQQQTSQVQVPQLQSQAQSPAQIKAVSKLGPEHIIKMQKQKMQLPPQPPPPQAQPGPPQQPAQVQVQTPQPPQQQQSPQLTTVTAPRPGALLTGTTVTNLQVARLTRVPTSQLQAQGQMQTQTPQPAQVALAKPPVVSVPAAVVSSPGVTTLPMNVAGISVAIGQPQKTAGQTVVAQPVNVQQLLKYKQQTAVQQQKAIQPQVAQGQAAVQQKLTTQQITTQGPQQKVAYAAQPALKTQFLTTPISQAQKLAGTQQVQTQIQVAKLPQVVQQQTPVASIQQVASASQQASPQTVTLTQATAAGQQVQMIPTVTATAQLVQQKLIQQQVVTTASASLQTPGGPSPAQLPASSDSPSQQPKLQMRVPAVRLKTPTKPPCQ

Key:
[1] = molecular target: T1, C-terminally 3xFlag-tagged Esrrb (oestrogen-related receptor beta) (mouse) (UniProt Q61539); assay: affinity purification with mass spectrometry; anti-FLAG M2 agarose IP of Esrrb-3xFlag from TS cell nuclear extract dialysed to buffer D (20 mM Hepes pH 7.6, 20% glycerol, 100 mM KCl, 1.5 mM MgCl2, 0.2 mM EDTA), 3 h at 4 °C with Benzonase, elution with FLAG-tripeptide, LC-MS/MS; two biological replicates against vector control
T1 sequence: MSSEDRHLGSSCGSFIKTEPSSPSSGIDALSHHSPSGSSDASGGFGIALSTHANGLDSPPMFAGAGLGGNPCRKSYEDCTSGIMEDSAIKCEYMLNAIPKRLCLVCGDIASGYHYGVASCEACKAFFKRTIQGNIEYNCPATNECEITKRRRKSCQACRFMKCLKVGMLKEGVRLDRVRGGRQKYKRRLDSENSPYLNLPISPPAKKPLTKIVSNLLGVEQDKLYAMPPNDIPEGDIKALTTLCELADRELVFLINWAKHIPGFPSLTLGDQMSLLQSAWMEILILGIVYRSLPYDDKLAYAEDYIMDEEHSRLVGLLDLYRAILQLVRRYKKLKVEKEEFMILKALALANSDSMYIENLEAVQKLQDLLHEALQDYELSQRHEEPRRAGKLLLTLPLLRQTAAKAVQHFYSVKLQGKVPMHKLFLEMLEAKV

Cdx2 (mouse) = molecular target: T2, Cdx2 (mouse) (UniProt P43241); assay: co-IP + affinity purification with mass spectrometry; Cdx2 co-immunoprecipitation from TS cells followed by either western blot or mass spectrometry
T2 sequence: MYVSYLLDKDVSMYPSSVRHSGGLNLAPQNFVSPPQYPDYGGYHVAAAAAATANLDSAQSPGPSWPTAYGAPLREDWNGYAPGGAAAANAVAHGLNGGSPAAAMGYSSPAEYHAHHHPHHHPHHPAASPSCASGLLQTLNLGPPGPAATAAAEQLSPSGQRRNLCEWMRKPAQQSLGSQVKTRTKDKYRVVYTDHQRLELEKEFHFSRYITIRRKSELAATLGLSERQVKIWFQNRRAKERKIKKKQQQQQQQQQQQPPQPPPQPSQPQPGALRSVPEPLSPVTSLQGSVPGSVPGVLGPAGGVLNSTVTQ

Row | Substance | binding [1] | binding (Cdx2 (mouse))
1 | Zinc-finger protein 462 (from UniProt B1AWL2 1-2495) | binds | –
2 | Sentrin-specific protease 3 (from UniProt Q9EP97 1-568) | binds | –
3 | Tead4 (from UniProt Q62296 1-427) | – | binds
4 | Integrator complex subunit 6 (from UniProt Q6PCM2 1-883) | binds | –
5 | Integrator complex subunit 7 (from UniProt Q7TQK1 1-966) | binds | –
6 | Histone-lysine N-methyltransferase EHMT2 (from UniProt Q9Z148 1-1263) | binds | –
7 | Runt-related transcription factor 1 (from UniProt Q03347 1-451) | binds | –
8 | DNA methyltransferase 1-associated protein 1 (from UniProt Q9JI44 1-468) | binds | –
9 | Transcription factor EB (from UniProt Q9R210 1-475) | binds | –
10 | Host cell factor 1 (mouse (endogenous in TS cells)) | binds | –
11 | Set1/Ash2 histone methyltransferase complex subunit ASH2 (from UniProt Q91X20 1-623) | binds | –

More lines, now with the values ahead:

Row | binding [1] | binding (Cdx2 (mouse)) | Substance
12 | binds | – | Integrator complex subunit 10 (from UniProt Q8K2A7 1-710)
13 | binds | – | Ras-responsive element-binding protein 1 (from UniProt Q3UH06 1-1700)
14 | binds | – | C-terminal-binding protein 1 (from UniProt O88712 1-441)
15 | binds | – | Integrator complex subunit 9 (from UniProt Q8K114 1-658)
16 | binds | – | Protein Prdm2 (from UniProt A2A7B5 1-1709)
17 | binds | – | MAX gene-associated protein (from UniProt A2AWL7 1-3003)
18 | binds | – | E1A-binding protein p400 (from UniProt Q8CHI8 1-3072)
